Reference: PMC13193388, “Dimerization‐dependent NOTCH receptor transactivation unveils a class of highly selective NOTCH signalling inhibitors” (The Febs Journal, 2025)
No constants are given. Whether binding was seen depends on the method and setting. Binding seen in cells or lysates may run through a third protein. Some results given as binding are weak or reduced against the parent protein; the word gives no strength.

Chains of the proteins cited; added tags and fusions are not shown. Lines headed by an entry give the natural chain unless they say otherwise; changes in a name come on top. Residues count along the entry.
UniProt Q04721, residues 26-2471: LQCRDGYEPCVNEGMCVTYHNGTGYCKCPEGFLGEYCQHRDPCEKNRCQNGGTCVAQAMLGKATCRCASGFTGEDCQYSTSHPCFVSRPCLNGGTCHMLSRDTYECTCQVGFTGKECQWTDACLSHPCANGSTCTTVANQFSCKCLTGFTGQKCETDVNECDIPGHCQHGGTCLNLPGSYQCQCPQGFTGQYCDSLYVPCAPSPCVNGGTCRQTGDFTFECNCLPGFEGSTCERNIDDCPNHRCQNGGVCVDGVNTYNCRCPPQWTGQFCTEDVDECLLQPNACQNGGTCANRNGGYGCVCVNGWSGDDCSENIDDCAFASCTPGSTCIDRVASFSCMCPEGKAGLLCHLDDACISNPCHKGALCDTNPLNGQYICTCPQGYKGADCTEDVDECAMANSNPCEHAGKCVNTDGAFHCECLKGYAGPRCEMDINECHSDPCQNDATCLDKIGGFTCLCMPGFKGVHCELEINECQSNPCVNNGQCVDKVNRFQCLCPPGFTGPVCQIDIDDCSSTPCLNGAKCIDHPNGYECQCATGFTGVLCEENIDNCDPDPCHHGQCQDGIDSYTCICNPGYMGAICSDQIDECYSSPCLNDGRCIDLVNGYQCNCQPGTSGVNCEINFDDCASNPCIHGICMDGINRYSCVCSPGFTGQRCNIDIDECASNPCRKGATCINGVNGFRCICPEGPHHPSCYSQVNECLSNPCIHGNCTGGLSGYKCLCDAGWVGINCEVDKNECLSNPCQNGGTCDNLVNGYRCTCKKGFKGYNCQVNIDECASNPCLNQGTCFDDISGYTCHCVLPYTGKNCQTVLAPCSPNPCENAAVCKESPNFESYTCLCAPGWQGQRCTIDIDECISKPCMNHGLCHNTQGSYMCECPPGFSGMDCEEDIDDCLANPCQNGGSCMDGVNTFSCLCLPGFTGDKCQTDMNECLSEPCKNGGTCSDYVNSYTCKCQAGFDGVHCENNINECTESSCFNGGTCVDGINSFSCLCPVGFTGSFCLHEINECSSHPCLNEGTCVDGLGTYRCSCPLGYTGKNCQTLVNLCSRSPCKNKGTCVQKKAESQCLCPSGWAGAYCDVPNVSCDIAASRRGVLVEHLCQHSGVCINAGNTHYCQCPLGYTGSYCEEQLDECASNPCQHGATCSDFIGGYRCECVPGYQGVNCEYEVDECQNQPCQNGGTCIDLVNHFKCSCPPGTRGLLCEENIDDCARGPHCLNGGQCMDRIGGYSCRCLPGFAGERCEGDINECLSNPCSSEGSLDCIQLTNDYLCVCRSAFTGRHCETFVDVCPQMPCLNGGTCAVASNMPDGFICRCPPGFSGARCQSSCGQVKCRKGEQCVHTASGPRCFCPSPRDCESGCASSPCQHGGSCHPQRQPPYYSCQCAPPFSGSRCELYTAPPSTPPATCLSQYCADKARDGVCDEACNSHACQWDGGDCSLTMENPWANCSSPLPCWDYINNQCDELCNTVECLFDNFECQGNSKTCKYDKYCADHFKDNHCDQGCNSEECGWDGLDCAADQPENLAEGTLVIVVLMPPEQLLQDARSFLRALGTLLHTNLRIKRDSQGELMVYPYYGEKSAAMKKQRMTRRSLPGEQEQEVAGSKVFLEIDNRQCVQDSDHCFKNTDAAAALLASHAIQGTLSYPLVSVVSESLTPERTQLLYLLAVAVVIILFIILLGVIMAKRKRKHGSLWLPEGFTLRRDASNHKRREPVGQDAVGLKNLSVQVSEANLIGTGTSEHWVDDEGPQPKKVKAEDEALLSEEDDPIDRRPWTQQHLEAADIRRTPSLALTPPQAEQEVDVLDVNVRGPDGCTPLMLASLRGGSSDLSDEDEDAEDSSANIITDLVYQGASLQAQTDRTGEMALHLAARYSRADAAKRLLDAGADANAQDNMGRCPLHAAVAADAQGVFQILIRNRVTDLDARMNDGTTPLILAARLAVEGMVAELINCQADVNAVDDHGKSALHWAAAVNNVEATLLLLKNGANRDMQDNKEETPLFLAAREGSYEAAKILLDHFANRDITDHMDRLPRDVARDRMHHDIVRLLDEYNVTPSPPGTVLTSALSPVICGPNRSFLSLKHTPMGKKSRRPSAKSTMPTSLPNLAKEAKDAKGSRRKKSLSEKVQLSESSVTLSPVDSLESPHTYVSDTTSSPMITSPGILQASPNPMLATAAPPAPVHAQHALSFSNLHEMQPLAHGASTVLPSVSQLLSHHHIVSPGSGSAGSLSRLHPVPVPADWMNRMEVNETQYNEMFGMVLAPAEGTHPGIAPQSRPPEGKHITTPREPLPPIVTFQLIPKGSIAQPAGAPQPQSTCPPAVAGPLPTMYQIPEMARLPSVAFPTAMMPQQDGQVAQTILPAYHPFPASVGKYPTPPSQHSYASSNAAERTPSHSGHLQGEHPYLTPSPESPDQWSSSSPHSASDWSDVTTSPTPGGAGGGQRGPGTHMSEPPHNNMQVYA
UniProt Q9UM47: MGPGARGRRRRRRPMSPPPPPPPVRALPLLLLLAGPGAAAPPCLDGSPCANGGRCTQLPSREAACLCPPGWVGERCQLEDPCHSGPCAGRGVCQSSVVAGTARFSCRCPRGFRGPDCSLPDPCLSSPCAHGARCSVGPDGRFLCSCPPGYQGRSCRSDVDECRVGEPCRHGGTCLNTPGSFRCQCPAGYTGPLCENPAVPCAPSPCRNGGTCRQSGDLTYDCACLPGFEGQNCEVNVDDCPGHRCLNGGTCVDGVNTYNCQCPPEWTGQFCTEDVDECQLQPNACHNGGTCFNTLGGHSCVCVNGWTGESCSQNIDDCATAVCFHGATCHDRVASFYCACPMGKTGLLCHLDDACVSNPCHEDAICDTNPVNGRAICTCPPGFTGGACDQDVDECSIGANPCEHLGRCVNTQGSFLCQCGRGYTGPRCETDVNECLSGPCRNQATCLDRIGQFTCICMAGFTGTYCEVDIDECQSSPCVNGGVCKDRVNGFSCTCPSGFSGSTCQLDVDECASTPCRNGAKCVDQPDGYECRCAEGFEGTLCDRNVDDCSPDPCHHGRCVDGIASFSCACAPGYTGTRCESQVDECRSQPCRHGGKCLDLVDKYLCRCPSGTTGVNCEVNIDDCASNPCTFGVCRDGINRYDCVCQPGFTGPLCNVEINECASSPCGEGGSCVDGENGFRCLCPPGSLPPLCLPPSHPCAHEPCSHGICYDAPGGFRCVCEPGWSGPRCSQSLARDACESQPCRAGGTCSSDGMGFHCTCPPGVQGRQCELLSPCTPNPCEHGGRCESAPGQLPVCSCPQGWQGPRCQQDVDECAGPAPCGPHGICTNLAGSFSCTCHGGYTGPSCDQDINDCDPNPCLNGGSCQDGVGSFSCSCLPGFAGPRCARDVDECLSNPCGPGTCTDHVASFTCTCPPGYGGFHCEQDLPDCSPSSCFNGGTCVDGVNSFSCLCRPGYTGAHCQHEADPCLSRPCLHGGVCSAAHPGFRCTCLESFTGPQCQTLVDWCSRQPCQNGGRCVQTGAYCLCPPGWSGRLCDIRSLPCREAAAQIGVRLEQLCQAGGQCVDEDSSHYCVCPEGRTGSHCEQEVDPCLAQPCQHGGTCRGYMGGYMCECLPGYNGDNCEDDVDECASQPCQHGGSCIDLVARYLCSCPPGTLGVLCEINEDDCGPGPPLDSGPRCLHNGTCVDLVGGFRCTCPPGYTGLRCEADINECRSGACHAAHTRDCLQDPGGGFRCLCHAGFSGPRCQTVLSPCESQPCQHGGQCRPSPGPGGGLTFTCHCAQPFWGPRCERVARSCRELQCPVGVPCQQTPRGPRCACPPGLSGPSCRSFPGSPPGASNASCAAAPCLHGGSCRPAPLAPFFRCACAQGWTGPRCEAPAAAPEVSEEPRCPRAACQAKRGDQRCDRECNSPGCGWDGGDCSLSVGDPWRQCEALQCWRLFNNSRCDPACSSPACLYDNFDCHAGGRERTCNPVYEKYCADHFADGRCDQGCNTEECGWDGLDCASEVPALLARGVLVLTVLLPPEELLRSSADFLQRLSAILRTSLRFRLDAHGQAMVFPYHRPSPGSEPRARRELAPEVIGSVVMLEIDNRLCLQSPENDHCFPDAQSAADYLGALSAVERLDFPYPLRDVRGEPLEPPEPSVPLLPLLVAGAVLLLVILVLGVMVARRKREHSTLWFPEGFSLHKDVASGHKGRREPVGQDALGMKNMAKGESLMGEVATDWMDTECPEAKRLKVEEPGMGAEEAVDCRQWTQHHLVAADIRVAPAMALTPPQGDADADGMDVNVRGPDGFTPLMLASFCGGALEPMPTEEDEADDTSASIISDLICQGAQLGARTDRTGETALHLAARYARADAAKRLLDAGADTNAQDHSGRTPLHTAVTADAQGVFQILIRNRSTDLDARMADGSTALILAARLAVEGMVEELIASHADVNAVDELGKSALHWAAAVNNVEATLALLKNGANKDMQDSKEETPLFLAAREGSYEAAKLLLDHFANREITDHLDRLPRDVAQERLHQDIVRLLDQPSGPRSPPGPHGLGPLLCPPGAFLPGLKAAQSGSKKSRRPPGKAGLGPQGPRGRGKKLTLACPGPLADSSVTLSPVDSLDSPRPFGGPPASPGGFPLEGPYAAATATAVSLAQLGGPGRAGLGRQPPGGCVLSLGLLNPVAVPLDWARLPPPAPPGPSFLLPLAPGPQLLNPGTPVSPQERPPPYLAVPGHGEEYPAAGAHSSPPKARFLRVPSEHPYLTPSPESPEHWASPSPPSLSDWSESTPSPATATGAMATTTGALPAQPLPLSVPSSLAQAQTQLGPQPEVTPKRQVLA

Experiments:
[1] = biological target: HIS epitope-tagged N2 immunopurified from tissue culture cells and immobilized on nickel beads (human) (UniProt Q04721); experiment: pull-down; HIS epitope-tagged receptor immunopurified from cells and immobilized on nickel beads, incubated with HA epitope-tagged receptor in the presence or absence of peptides; Western blot
[2] = biological target: purified recombinant HIS epitope-tagged NOTCH3 extracellular domain (human) (UniProt Q9UM47); experiment: co-IP; purified recombinant N3 ECD incubated with in vitro translated HA epitope-tagged N3-ECD; immunoprecipitation, Western blot; only the target purified
[3] = biological target: HIS epitope-tagged full-length NOTCH3 (human) (UniProt Q9UM47); experiment: co-IP; HA and HIS epitope-tagged constructs cotransfected into 293T cells; immunoprecipitation, Western blot
[4] = biological target: HA epitope-tagged full-length NOTCH3 (human) (UniProt Q9UM47); experiment: proximity ligation; 293T cells stably expressing HA epitope-tagged receptor, 2 μg/mL recombinant human DLL1 for 1 h at 4 °C; mouse and rabbit anti-HA antibodies, Duolink

Q: How did the binding [1] turn out when “HA epitope-tagged N2 incubated with bead-bound HIS epitope-tagged N2 (from UniProt Q04721 26-2471) (receptor)” was run?
A: binds

Q: How did the binding [2] turn out when “HA epitope-tagged N3-ECD produced by in vitro translation (from UniProt Q9UM47 40-1643) (domain or fragment)” was run?
A: binds

Q: “HA epitope-tagged full-length NOTCH3 (from UniProt Q9UM47 40-2321) (receptor)” was tested. Which binding [3] did it give?
A: binds

Q: What about the binding [4] of the same substance?
A: binds
